Test results from paper PMC4250933.
Results are given in words; binding and its absence hold for the method and conditions named. For some assays here: In cells and extracts the contact can be indirect. Some results given as binding are weak or reduced against the parent protein; the word gives no strength. For some assays here: Tags and fused reporters may be left off the sequences shown.

B1: Snf1p (protein, UniProt P06782 1-633)
chain: MSSNNNTNTAPANANSSHHHHHHHHHHHHHGHGGSNSTLNNPKSSLADGAHIGNYQIVKTLGEGSFGKVKLAYHTTTGQKVALKIINKKVLAKSDMQGRIEREISYLRLLRHPHIIKLYDVIKSKDEIIMVIEYAGNELFDYIVQRDKMSEQEARRFFQQIISAVEYCHRHKIVHRDLKPENLLLDEHLNVKIADFGLSNIMTDGNFLKTSCGSPNYAAPEVISGKLYAGPEVDVWSCGVILYVMLCRRLPFDDESIPVLFKNISNGVYTLPKFLSPGAAGLIKRMLIVNPLNRISIHEIMQDDWFKVDLPEYLLPPDLKPHPEEENENNDSKKDGSSPDNDEIDDNLVNILSSTMGYEKDEIYESLESSEDTPAFNEIRDAYMLIKENKSLIKDMKANKSVSDELDTFLSQSPPTFQQQSKSHQKSQVDHETAKQHARRMASAITQQRTYHQSPFMDQYKEEDSTVSILPTSLPQIHRANMLAQGSPAASKISPLVTKKSKTRWHFGIRSRSYPLDVMGEIYIALKNLGAEWAKPSEEDLWTIKLRWKYDIGNKTNTNEKIPDLMKMVIQLFQIETNNYLVDFKFDGWESSYGDDTTVSNISEDEMSTFSAYPFLHLTTKLIMELAVNSQSN
B2: Snf1p fused to the activation domain of Gal4 (AD) (protein, UniProt P06782 1-633)
chain: B1 chain

Tests used:
[1] = target: T1, Mdf1p-3HA (S. cerevisiae) (UniProt P25585); experiment: co-IP; lysate of yeast overexpressing HA-tagged Mdf1p (lag phase) precipitated with anti-HA antibody and protein-G agarose; western blot with a Snf1p antibody; wild-type cells as negative control; lysis buffer 50 mM Tris-HCl pH 7.5, 150 mM NaCl, 0.2% NP-40, 4°C
T1 sequence: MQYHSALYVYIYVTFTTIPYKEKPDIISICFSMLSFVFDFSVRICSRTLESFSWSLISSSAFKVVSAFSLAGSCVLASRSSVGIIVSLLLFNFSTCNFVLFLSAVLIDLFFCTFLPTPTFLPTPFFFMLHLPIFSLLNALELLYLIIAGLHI

[2] = target: T2, Mdf1p fused to the DNA-binding domain of Gal4 (DB) (S. cerevisiae) (UniProt P25585); experiment: two-hybrid; Gal4 DB-Mdf1p and Gal4 AD-Snf1p co-transformed into strain Y190; selection on SD-Trp-Leu-His, X-gal; plasmids transformed separately as negative controls
T2 sequence: T1 sequence

| Binder | binding [1] | binding [2] |
| --- | --- | --- |
| B1 | binds | – |
| B2 | – | binds |
